No constants are given. Whether binding was seen depends on the method and setting. Some entries that bind do so weakly or less than the wild type.
B1: Drosophila Arc2 C-lobe (domain or fragment)
chain: KPSYQIYMEIFETKQSYDEVIDSFICKQRALLAKLPEGRHDEETELDFIYGLMQPKYRESIPRHEVKTFRELLDRGRTVERTRH
notes: Arc2 (dArc2) of Drosophila, isolated C-lobe; monomeric mass 10 kDa; Dimer in the crystal and in solution; also called dArc2-CL; source: E. coli BL21(DE3), purified (Ni-NTA, TEV cleavage, second Ni-NTA, amylose resin, Superdex S200); not shown: His tag, N-terminal, cleaved; MBP, N-terminal, cleaved

Key:
[1] = molecular target: Drosophila Arc2 C-lobe (Drosophila) (UniProt Q7JV70); experiment: crystal structure; sitting-drop vapor diffusion at +20°C; oligomeric states from crystal symmetry with PISA; both purified
[2] = molecular target: T1, Drosophila Arc2 N-lobe (Drosophila) (UniProt Q7JV70); experiment: condition: 0.5 mM dArc N-lobe in the cell; peptide in the syringe 10-fold higher; ITC; Arc N-lobe in the cell (0.5 mM dArc N-lobes, 0.25 mM hArc N-lobe), peptide in the syringe 10-fold higher; TBS; +25°C; one-site binding model; both purified
T1 sequence: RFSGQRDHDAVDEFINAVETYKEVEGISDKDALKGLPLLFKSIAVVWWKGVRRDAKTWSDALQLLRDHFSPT

Row | Binder | binding [1] | binding [2]
1 | B1 | binds | –
2 | RIPSYRYR (N-terminal acetylation; C-terminal amidation) [stargazin peptide] | – | no binding
